In patent publication US20130130320, “ENZYMES” (published 2013):
Numbering of substitutions follows the chain as printed. Construct, isoform or probe ends are uncertain for at least one entry. For some of these results: Tags and fusion partners may be left off the protein sequences shown.

Experiments:
[1] = biological target: T1, TGK (TgoT Y409G E664K) (Thermococcus gorgonarius) (UniProt P56689); experiment: EMSA; conditions: K0 strand is RNA (bases printed as DNA); second gate mutation vs parental E664; individual mutants and Kd values not stated; Thermopol, 1 mM EDTA; purified recombinant protein; label: 5'-FITC primer, 5'-biotin template; DNA:RNA hybrid
T1 sequence: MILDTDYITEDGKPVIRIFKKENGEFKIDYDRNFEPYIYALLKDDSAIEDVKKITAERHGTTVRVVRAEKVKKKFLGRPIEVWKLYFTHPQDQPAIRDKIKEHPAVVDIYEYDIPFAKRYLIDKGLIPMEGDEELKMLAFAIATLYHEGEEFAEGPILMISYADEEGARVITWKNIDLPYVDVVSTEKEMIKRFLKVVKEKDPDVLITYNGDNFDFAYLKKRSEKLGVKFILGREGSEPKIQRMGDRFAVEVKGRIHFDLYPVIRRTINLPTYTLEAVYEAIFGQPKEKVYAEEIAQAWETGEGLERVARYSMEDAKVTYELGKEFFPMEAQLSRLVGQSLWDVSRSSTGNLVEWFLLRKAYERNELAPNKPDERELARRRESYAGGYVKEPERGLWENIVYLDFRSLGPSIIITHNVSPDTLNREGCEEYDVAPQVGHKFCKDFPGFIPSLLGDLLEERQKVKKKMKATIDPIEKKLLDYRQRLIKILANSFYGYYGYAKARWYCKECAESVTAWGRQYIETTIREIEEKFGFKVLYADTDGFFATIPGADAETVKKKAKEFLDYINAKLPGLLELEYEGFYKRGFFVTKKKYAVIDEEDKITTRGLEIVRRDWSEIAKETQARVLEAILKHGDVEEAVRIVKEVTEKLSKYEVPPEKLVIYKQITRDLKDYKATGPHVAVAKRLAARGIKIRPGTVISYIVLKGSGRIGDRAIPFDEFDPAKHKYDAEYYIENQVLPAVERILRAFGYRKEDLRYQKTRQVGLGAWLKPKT

[2] = biological target: T2, D4N (D4N3, D4 Y409N) (Thermococcus gorgonarius) (UniProt P56689); experiment: activity assay; conditions: primer strand is RNA (bases printed as DNA); time to full-length 65 nt tRNA; purified recombinant protein; label: 5'-FITC primer; DNA:RNA hybrid
T2 sequence: T1 sequence with L403P, G409N, P657T, E658Q, K659H, Y663H, K664Q, D669A, K671N, T676I

[3] = biological target: T1, TGK (TgoT Y409G E664K) (Thermococcus gorgonarius); experiment: activity assay; conditions: primer strand is RNA (bases printed as DNA); time to full-length 65 nt tRNA; Thermopol + 3 mM MgSO4, 65 C; purified recombinant protein; label: 5'-FITC primer; DNA:RNA hybrid
[4] = biological target: TNQ (TgoT Y409N E664Q) (Thermococcus gorgonarius) (UniProt P56689); experiment: activity assay; conditions: primer strand is RNA (bases printed as DNA); time to full-length 65 nt tRNA; purified recombinant protein; label: 5'-FITC primer; DNA:RNA hybrid

Sequence: GCACGGCAGCACGTG / ACTGCGATGACTGTACTCGTCTAGTAGCACTGCACGTGCTGCCGTGC [K0 RNA primer / TempK4]
- binding result [1]: binds

Sequence: GGTGGGGTTCCCGAGCGGCCAAAGGGAGCAGACTCTAAATCTGCCGTCATCGACTTCGAAGGTTCGAATCCTTCCCCCACCACCA / CAGGAAACAGCTATGACAAATGGTGGTGGGG [tRNAtempl / YtRHNA2HNA2 RNA primer]
- activity on this sequence [2]: 20 min
- activity on this sequence [3]: < 30 s
- activity on this sequence [4]: < 10 min
